{
  "sequences": {"note": "By UniProt entry, the sequences of proteins in these tests, tags left out. Where a name states a change or a piece, a line headed by the entry shows the natural chain unless it says otherwise. Residues count along the entry.", "UniProt P49951": "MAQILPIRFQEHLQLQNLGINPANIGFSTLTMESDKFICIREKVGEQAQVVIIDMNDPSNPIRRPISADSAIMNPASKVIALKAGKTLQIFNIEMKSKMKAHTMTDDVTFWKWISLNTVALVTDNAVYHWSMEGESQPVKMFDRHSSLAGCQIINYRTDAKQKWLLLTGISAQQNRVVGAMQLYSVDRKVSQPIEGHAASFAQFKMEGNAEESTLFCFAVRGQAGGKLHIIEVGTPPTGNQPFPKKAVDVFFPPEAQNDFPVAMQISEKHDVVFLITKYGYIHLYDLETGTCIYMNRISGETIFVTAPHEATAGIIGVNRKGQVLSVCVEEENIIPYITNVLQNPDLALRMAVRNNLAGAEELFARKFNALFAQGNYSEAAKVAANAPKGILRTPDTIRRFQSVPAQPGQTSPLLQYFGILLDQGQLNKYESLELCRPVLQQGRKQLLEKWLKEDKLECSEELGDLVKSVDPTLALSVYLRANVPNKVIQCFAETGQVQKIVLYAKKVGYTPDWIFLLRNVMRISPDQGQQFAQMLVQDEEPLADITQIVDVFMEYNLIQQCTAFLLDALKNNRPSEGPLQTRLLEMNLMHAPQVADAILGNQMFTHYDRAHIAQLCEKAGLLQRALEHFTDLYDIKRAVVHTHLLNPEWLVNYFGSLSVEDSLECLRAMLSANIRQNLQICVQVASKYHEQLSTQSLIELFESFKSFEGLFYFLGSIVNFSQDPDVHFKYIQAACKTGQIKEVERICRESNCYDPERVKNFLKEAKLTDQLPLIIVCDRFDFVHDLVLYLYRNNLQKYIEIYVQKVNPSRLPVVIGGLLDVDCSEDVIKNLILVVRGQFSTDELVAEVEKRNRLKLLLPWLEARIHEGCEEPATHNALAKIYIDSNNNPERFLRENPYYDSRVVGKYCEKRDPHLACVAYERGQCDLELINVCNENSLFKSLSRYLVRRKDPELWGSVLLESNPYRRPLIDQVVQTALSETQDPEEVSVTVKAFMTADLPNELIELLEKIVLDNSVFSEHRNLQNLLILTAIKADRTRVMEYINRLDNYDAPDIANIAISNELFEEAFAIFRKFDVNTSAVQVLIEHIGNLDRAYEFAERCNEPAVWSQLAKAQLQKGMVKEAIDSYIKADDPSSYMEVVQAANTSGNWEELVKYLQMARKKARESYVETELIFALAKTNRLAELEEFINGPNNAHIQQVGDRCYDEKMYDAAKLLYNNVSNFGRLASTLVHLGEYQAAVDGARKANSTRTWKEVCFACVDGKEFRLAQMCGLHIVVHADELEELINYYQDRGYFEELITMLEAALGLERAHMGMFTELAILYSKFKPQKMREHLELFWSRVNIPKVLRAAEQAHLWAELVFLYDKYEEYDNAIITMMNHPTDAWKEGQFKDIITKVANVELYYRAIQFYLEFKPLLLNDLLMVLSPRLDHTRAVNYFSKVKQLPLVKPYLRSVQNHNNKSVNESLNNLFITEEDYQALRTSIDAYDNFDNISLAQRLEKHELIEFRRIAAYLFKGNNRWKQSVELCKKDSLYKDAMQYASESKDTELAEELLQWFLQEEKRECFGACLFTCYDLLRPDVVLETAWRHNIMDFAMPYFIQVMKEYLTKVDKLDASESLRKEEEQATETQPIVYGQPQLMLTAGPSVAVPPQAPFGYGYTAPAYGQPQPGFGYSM", "CHC Hub fragment (residues 1074 to 1675)": "residues 1074-1675 of P49951"},
  "source": "paper PMC7519287",
  "biological_target": "CHC Hub fragment (residues 1074 to 1675) (UniProt P49951)",
  "test": "in vitro coassembly of fragments into cages with electron microscopy; Hub, with or without CLCs, combined with TDD under conditions promoting their coassembly (ref. 47); cage size from EM images; both purified",
  "note": "Results are given in words; binding and its absence hold for the method and conditions named. Some binding calls cover weakened binding; strength is not graded here.",
  "data": [
    {"substance": "CHC terminal-distal leg segment (TDD, residues 1 to 1074) (from UniProt P49951 1-1074) (domain or fragment)", "values": [
      {"measurement": "binding", "value": "binds"}
    ]}
  ]
}
